Measurements from article doi:10.1101/2020.06.06.138156 (bioRxiv, 2020).
No constants are given. Whether binding was seen depends on the method and setting. In cells and extracts the contact can be indirect.

Assays:
Assay in all cases: pull-down
[1] = molecular target: T1, Halo-SETD2 2264-2564 (human) (UniProt Q9BYW2)
T1 sequence: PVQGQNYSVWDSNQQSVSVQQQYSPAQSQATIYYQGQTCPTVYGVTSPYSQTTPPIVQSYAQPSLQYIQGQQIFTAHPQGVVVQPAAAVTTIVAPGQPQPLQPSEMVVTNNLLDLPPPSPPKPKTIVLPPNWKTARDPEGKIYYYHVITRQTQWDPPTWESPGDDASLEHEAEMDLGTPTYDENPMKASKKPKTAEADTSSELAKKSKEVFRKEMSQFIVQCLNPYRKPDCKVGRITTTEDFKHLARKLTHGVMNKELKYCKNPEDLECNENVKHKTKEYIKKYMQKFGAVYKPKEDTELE

[2] = molecular target: T2, Halo-SETD2CΔ2114-2263 (human) (UniProt Q9BYW2)
T2 sequence: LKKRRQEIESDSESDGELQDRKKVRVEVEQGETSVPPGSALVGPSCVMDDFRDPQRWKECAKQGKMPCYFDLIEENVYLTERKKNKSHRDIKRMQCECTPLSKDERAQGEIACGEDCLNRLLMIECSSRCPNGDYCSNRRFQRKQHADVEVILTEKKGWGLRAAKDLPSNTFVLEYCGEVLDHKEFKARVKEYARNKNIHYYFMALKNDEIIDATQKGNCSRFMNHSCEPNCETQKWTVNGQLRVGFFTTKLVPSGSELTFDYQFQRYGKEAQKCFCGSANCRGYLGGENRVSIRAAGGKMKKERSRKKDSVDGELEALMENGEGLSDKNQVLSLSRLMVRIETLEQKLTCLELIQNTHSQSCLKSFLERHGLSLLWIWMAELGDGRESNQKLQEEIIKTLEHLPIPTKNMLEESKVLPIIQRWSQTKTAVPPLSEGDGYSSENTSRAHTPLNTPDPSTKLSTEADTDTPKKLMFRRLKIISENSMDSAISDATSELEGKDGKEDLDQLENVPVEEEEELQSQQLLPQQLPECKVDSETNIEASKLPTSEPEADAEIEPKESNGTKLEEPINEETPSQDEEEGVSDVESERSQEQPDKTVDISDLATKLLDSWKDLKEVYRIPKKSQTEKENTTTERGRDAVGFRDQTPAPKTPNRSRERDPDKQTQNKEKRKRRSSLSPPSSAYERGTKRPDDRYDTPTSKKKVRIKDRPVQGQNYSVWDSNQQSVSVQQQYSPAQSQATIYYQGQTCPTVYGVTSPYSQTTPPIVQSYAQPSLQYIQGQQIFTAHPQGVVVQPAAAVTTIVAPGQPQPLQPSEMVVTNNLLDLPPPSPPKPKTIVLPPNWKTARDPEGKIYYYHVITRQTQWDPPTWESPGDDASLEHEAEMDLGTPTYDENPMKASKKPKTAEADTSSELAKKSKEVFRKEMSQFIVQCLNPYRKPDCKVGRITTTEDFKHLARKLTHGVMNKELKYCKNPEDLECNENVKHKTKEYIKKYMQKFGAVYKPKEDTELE

[3] = molecular target: T3, Halo-SETD2CΔ2164-2213 (human) (UniProt Q9BYW2)
T3 sequence: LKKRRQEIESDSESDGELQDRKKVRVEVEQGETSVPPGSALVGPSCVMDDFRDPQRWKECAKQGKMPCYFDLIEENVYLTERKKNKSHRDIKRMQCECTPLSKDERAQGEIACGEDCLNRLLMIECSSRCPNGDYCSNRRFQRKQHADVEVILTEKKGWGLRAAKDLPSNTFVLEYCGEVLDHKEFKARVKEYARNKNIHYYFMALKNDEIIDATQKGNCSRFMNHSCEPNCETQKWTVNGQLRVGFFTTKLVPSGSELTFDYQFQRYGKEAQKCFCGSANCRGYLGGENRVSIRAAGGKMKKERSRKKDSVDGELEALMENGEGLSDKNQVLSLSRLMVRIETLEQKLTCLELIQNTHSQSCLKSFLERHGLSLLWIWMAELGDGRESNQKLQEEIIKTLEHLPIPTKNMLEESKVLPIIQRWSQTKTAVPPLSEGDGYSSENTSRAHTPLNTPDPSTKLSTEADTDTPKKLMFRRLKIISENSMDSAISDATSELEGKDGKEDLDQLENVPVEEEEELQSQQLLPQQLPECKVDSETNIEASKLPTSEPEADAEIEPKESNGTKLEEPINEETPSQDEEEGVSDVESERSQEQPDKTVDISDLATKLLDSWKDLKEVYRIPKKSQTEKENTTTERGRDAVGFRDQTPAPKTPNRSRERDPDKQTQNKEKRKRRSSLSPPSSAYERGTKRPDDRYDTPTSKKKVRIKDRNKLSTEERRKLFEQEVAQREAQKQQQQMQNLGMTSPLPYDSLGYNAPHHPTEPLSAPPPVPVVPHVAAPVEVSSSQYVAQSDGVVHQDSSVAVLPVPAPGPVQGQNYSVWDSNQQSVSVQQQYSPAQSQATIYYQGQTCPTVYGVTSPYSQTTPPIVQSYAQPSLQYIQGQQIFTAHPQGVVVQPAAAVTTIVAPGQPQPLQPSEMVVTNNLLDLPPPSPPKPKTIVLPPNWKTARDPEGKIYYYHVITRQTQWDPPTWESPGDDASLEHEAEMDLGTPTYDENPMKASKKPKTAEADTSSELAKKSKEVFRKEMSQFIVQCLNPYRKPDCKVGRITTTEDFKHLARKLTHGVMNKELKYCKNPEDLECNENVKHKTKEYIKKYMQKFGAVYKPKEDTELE

Measured: binding

B1: hnRNP L (endogenous) (protein, UniProt P14866 1-589)
chain: MSRRLLPRAEKRRRRLEQRQQPDEQRRRSGAMVKMAAAGGGGGGGRYYGGGSEGGRAPKRLKTDNAGDQHGGGGGGGGGAGAAGGGGGGENYDDPHKTPASPVVHIRGLIDGVVEADLVEALQEFGPISYVVVMPKKRQALVEFEDVLGACNAVNYAADNQIYIAGHPAFVNYSTSQKISRPGDSDDSRSVNSVLLFTILNPIYSITTDVLYTICNPCGPVQRIVIFRKNGVQAMVEFDSVQSAQRAKASLNGADIYSGCCTLKIEYAKPTRLNVFKNDQDTWDYTNPNLSGQGDPGSNPNKRQRQPPLLGDHPAEYGGPHGGYHSHYHDEGYGPPPPHYEGRRMGPPVGGHRRGPSRYGPQYGHPPPPPPPPEYGPHADSPVLMVYGLDQSKMNCDRVFNVFCLYGNVEKVKFMKSKPGAAMVEMADGYAVDRAITHLNNNFMFGQKLNVCVSKQPAIMPGQSYGLEDGSCSYKDFSESRNNRFSTPEQAAKNRIQHPSNVLHFFNAPLEVTEENFFEICDELGVKRPSSVKVFSGKSERSSSGLLEWESKSDALETLGFLNHYQMKNPNGPYPYTLKLCFSTAQHAS
no binding: [1] | [2] | [3]
